The data set is described as follows: CT imaging of Plexiglas phantom with Pt solutions (FIGS. 8-9).

Take `[Cl][Pt-2]([Cl])([Cl])([Cl])([Cl])[Cl].[Na+].[Na+]` [Pt, Na2PtCl6]: the “average gray level in CT image” value came to 36.1 (10 μg/ml Pt in aqueous solution, 1 mm slice); 43.0 (30 μg/ml Pt); 51.3 (100 μg/ml Pt); 75.7 (300 μg/ml Pt); 132.1 (1000 μg/ml Pt).

(Values after patent US6694171B1, “X-ray imaging of tumors with dextran carrier of platinum compounds” (Yeda Research and Development, priority 1997, dated 2004).)
